From patent US20150266963A1
These are yes or no findings as the source states them, for the method shown. Some results given as binding are weak or reduced against the parent protein; the word gives no strength. For part of these data: Sequences can lack the tags named with a protein.

Assays:
[1] = target: T1, recombinant human CD70 (Flag-TNC-CD70) (human) (UniProt P32970); test: Biacore, CM5 chip highly coated with CD70 (4000 RU); stored samples against a reference sample [panels 41D12: R0 in Biacore and 41D12 : slope in Biacore]
T1 sequence (looked up): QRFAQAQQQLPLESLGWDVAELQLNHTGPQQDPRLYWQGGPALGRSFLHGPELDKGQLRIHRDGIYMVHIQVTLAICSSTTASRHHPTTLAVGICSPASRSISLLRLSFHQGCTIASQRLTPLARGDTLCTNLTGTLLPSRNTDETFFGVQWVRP

[2] = target: T2, heat denatured recombinant CD70 (human) (UniProt P32970); test: ELISA on coated heat denatured recombinant CD70, mAb at 10 µg/ml, anti-human IgG-HRP
T2 sequence (looked up): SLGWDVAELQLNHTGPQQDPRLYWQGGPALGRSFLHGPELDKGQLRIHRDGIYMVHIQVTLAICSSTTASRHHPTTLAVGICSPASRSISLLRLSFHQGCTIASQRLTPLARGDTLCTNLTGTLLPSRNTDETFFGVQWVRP

[3] = target: T1, recombinant human CD70 (Flag-TNC-CD70) (human); test: ELISA; captured Flag-TNC-CD70
[4] = target: T3, rhesus CD70 on LCL8664 cells (rhesus) (UniProt F7GPA5); test: FACS on LCL8664 cells (FIG. 20)
T3 sequence: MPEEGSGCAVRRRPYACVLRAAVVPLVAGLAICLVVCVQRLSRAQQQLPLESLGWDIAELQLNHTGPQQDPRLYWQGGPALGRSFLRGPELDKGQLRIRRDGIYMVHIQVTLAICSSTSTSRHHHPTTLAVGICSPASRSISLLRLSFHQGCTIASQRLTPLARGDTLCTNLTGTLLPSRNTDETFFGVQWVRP

[5] = target: T3, rhesus CD70 on LCL8664 cells (rhesus); test: flow cytometry on rhesus LCL8664 cells, goat anti human IgG1 FITC [panel Rhesus monkey]
[6] = target: T2, heat denatured recombinant CD70 (human); test: ELISA on coated heat denatured CD70; mAb 10 µg/ml

Measured: binding

B1: 41D12 mAb (full-length human IgG1, HEK293) (antibody, V domains shown)
VH: EVQLVESGGGLVQPGGSLRLSCAASGFTFSVYYMNWVRQAPGKGLEWVSDINNEGGTTYYADSVKGRFTISRDNSKNSLYLQMNSLRAEDTAVYYCARDAGYSNHVPIFDSWGQGTLVTVSS
VL: QAVVTQEPSLTVSPGGTVTLTCGLKSGSVTSDNFPTWYQQTPGQAPRLLIYNTNTRHSGVPDRFSGSILGNKAALTITGAQADDEAEYFCALFISNPSVEFGGGTQLTVLG
binds: [1]

B2: ARGX-110 (non-fucosylated 41D12 human IgG1) (antibody, V domains shown)
VH: B1 VH
VL: B1 VL
not listed: [1]
binds: all other assays above
